These are yes or no findings as the source states them, for the method shown. In cells and extracts the contact can be indirect. Some entries that bind do so weakly or less than the wild type.

Sequences of proteins named here, by UniProt entry; tags and fusion partners are left off. Residues count along the entry.
UniProt Q9NZQ7, residues 19-290: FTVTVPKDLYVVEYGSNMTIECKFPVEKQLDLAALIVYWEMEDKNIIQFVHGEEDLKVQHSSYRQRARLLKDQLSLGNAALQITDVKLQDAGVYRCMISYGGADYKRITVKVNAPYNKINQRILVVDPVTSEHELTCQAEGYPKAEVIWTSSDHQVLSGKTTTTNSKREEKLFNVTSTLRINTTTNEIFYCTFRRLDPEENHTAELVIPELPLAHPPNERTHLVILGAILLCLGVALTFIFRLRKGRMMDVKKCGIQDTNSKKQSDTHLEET
UniProt Q86TM6: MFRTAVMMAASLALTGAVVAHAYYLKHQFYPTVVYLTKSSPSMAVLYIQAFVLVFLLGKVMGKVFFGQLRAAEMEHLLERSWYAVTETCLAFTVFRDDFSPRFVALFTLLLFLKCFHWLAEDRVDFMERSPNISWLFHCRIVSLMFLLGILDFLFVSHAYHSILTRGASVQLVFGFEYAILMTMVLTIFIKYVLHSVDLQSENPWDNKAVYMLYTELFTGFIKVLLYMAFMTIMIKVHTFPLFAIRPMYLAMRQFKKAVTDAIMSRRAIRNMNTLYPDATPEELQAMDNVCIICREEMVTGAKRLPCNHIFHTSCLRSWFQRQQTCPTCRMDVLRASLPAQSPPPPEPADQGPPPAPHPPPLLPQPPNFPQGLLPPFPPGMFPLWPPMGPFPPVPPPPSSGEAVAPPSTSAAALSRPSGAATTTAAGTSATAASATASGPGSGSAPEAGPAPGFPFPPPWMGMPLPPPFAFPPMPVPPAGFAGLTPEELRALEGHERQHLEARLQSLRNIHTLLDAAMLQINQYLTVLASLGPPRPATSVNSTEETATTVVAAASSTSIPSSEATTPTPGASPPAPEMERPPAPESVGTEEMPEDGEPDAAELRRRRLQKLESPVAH

This experiment deals with programmed death‐ligand 1 (UniProt Q9NZQ7). The experiment in a line: co-IP; 293T cells cotransfected with PD‐L1 and HRD1 plasmids; extracts in IP lysis buffer with 1% protease inhibitor cocktail, overnight at 4°C with target‐specific antibodies, five washes, immunoblot. (In general: Immunoblotting shows a protein as a band on a membrane.)

As for “HMG‐CoA reductase degradation protein 1 (from UniProt Q86TM6 1-617) (enzyme)”, the binding result is “binds”.

The values above are taken from PMC12531455.
